Assay results: publication PMC7819943, “Rice protein-binding microarrays: a tool to detect cis-acting elements near promoter regions in rice”
Some of the results follow.

What follows are sequences tested against T1, OsSMF1 (Oryza sativa, UniProt Q6ZLB0 1-436) (assay: protein-binding microarray (RPBM); PBS, 2% BSA, 51.3 ng/ul salmon testes DNA, 50 uM zinc acetate, 200 nM TF, 25 C, 1 h; high values mean tight binding). Details: protein: recombinant; tags: N-terminal polyhistidine and DsRed monomer fusion (pET32a); chain copies: 2; label: CyDye5-dUTP incorporated in the synthesized complementary strand; 3' TTTTT single-stranded linker to array surface; dsDNA, one strand shown.
T1 sequence: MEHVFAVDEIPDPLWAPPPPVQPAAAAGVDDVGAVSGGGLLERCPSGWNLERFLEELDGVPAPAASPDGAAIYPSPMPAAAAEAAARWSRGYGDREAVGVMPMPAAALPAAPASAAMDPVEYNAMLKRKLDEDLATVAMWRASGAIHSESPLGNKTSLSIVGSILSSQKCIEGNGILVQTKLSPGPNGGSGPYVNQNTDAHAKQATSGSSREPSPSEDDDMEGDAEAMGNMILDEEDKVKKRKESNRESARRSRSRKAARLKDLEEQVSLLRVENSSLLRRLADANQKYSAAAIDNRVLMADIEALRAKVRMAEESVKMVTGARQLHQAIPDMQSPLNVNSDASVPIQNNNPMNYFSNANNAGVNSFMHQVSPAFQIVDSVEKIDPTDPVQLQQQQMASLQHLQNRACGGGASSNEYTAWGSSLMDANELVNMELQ
In short: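 Binding signal is reported as fluorescence intensity per feature (arbitrary units) from an Axon 4000B scanner. Incubation used 200 nM of each Ni–NTA-purified, N-terminally polyhistidine- and DsRed-fused transcription factor from E. coli BL21-CodonPlus on a double-stranded custom Agilent array for 1 h at 25 °C, with 50 µM zinc acetate in the buffer, followed by washing.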

| Sequence | binding signal |
| --- | --- |
| GAGAAACTCATGGTTCATCGTCCCTCCAAACACAAATTCTCGGAGTCACCTAGTGCAG | 7920 fluorescence intensity (a.u.) |
| ATAAGTGTTCTATCTCTCCTTTACGTTCCTTGATTCAATCCGGAGTCACCTAGTGCAG | 3160 fluorescence intensity (a.u.) |
| AACTATAAAATTAGAAAACACGGGGATGATAAGGTTTGGTCGGAGTCACCTAGTGCAG | 23600 fluorescence intensity (a.u.) |
| GTTGGCCATGGCCTTACATGTCACATAAATAATCATTAACCGGAGTCACCTAGTGCAG | 3200 fluorescence intensity (a.u.) |
| TAATAGTGCTCCTACGGTGGGGAAACCTCCTGTTGTTACACGGAGTCACCTAGTGCAG | 3230 fluorescence intensity (a.u.) |
| GCCACCGCCGCCGCGCGGTCGACGCAAGGGTAAGGGTAAGCGGAGTCACCTAGTGCAG | 27600 fluorescence intensity (a.u.) |
| TCAAATTGTCACATAAGCGTCATGTCAATGCCACGTCAGACGGAGTCACCTAGTGCAG | 27200 fluorescence intensity (a.u.) |
| GAAGCAACCAAAATCCCTTGTCCTGTCATATTGTCGTACTCGGAGTCACCTAGTGCAG | 3210 fluorescence intensity (a.u.) |
| ACGACGAGAACTCGGTCCGCGTCACCAACCTGTCGGAGGACGGAGTCACCTAGTGCAG | 11500 fluorescence intensity (a.u.) |
| TGCCGGAGGAAGGCGATGGCGCTGGCGGCGTCGACGGGCGCGGAGTCACCTAGTGCAG | 35900 fluorescence intensity (a.u.) |
| CTGGTTTTGTGCAGGTGACGCAGCGTCGCATTGAGAACCCCGGAGTCACCTAGTGCAG | 7240 fluorescence intensity (a.u.) |
| GGGTTTATTTGGGCGGTGGGGAGAAATCCGTGGTTCGGTGCGGAGTCACCTAGTGCAG | 4140 fluorescence intensity (a.u.) |
| CTTCGTCGCTCGCCGCCTCATCAGGTATTTTCTGTTATTCCGGAGTCACCTAGTGCAG | 8380 fluorescence intensity (a.u.) |
| AGAGTAAGCAGCACACGCAAGCAAAAGCCTTGCCTTCACTCGGAGTCACCTAGTGCAG | 5410 fluorescence intensity (a.u.) |
| TGACGACAGCATAAACAGAAAGCGTGACCAGTCACCAGTGCGGAGTCACCTAGTGCAG | 4270 fluorescence intensity (a.u.) |
| TACATCCCTCCACGTCATCGATCCGCGCCGCGTGCCTTCCCGGAGTCACCTAGTGCAG | 37300 fluorescence intensity (a.u.) |
| TCCAATTTTAAAGTTTATGGATGAAATTTAGACCTTTGTGCGGAGTCACCTAGTGCAG | 18100 fluorescence intensity (a.u.) |
| GGTTTCTTCCTTGTGATTCTCTGACGTCCTGCGAGATGGTCGGAGTCACCTAGTGCAG | 3410 fluorescence intensity (a.u.) |
| CATTGCCCCTGTTGGTGAGTTGGGCAGCCATGCCGTGCGGCGGAGTCACCTAGTGCAG | 3500 fluorescence intensity (a.u.) |
| GCGCGCCGGCAGGCTGGACGAGGCGTACGCCATGGTGACCCGGAGTCACCTAGTGCAG | 3200 fluorescence intensity (a.u.) |
| ACGACTAGTCAGGGATGAGTCGGATGGATATGCTCTTTATCGGAGTCACCTAGTGCAG | 4790 fluorescence intensity (a.u.) |
| TTTGTTCGAGTTCAATGATTTACCATCGACATTGTCTCCTCGGAGTCACCTAGTGCAG | 21000 fluorescence intensity (a.u.) |
| CTCTCCTCTCTTCTCGAGCGCGGCGGCGGTGGTGGGGAGGCGGAGTCACCTAGTGCAG | 4350 fluorescence intensity (a.u.) |
| TAACATGACGCACGCGCGCGGCCGCTAACACGCTACTAGTCGGAGTCACCTAGTGCAG | 4830 fluorescence intensity (a.u.) |
| AAAACTCACACCCGTTAAGCGTGCTTACGTACAGGCGTACCGGAGTCACCTAGTGCAG | 4050 fluorescence intensity (a.u.) |
| CTAATCTAGGATTCCACATTCCGTGACAGCGCCGCCGTGCCGGAGTCACCTAGTGCAG | 3630 fluorescence intensity (a.u.) |
| ATTCCATCCAACGTGGCAATATAACATCGACACGTCACCACGGAGTCACCTAGTGCAG | 32200 fluorescence intensity (a.u.) |

2 records drawn at random from the list so far:

| Sequence | binding signal |
| --- | --- |
| GGGTTTATTTGGGCGGTGGGGAGAAATCCGTGGTTCGGTGCGGAGTCACCTAGTGCAG | 4140 fluorescence intensity (a.u.) |
| TACATCCCTCCACGTCATCGATCCGCGCCGCGTGCCTTCCCGGAGTCACCTAGTGCAG | 37300 fluorescence intensity (a.u.) |

Next part:

| Sequence | binding signal |
| --- | --- |
| CGGGCACTGCCAGAATGTGTCCATATCCTAAGCAGCAGCCCGGAGTCACCTAGTGCAG | 3520 fluorescence intensity (a.u.) |
| TGGATACAAACTTGGGCCAAACACCTTAGTGAAACTCTGACGGAGTCACCTAGTGCAG | 3150 fluorescence intensity (a.u.) |
| CCACCACCAGCTCACGCCTCCCAAGTCCCAAGCGGCGACGCGGAGTCACCTAGTGCAG | 3200 fluorescence intensity (a.u.) |
| CCGATCGATAATTCCAACGTCGCCGTCGTCATCATTTGTCCGGAGTCACCTAGTGCAG | 7460 fluorescence intensity (a.u.) |
| CACGCTACCAAGTTATAGCAACTACGCATTGCGTTTGCCACGGAGTCACCTAGTGCAG | 3460 fluorescence intensity (a.u.) |
| TGGCCACCATGCTTGTTAATAGTATAGTAAGCAACTATTGCGGAGTCACCTAGTGCAG | 3850 fluorescence intensity (a.u.) |
| TTTAATGATCTTATAAATTGTAATGCTGATAGGTGGTTATCGGAGTCACCTAGTGCAG | 3590 fluorescence intensity (a.u.) |
| CGTGCTTCCCTAGTGTCCTCACTTGTTCAGTCCCTGTCACCGGAGTCACCTAGTGCAG | 4580 fluorescence intensity (a.u.) |
| AAATTATGCCACCTCTCCCCTGCCAACGCACCGCGCCGCCCGGAGTCACCTAGTGCAG | 3670 fluorescence intensity (a.u.) |
| CTGCCCGCACACGTGGACCACGCGTGATGACTCCCCATCGCGGAGTCACCTAGTGCAG | 11800 fluorescence intensity (a.u.) |
| TTGTGATGGTAGTACGTGGGCTGCTTTTATAGTTTGGTGGCGGAGTCACCTAGTGCAG | 4190 fluorescence intensity (a.u.) |
| CTCGGCGCGGCGGGCCCGCGATGCGCAGGTGTGCGTGTCACGGAGTCACCTAGTGCAG | 5280 fluorescence intensity (a.u.) |
| AGGCAGCGTCGTGGTGGTGACTCCGTGCTGACTCGACCGTCGGAGTCACCTAGTGCAG | 15800 fluorescence intensity (a.u.) |
| GGGAGAAATTTCCAAGAAAAGAAAATAGGAGGAAATCGTTCGGAGTCACCTAGTGCAG | 33500 fluorescence intensity (a.u.) |
| ATCATTAAATTCGAGCACAGTAATACATGCAAATAATTGTCGGAGTCACCTAGTGCAG | 36100 fluorescence intensity (a.u.) |
| TGTTGATGGCTCATTCCAGGAGAGTGACGGCAAGGGTGGTCGGAGTCACCTAGTGCAG | 3290 fluorescence intensity (a.u.) |
| GCGCGCCTTCGTTGACGTCCGCAACCGCGAGTAGTTCCTGCGGAGTCACCTAGTGCAG | 3870 fluorescence intensity (a.u.) |
| AATACCCCATACGACACCTATATAATACTCGATGACACACCGGAGTCACCTAGTGCAG | 4470 fluorescence intensity (a.u.) |
| CCATGCGGGACCGCTTCGCCGCCGCCACCTCGGCTCGGCGCGGAGTCACCTAGTGCAG | 4120 fluorescence intensity (a.u.) |
| GGGCACTCGAACCATCTAGTGCAGACGTGGTAACTGGCGCCGGAGTCACCTAGTGCAG | 5510 fluorescence intensity (a.u.) |
| ACGGAGAAGTCCCGAGACCGGCGCCGCCAGGACCGCCACCCGGAGTCACCTAGTGCAG | 44400 fluorescence intensity (a.u.) |
| GTCCATGGGCAAATTACCACGTTTATGGAGTGTTTTCCCCCGGAGTCACCTAGTGCAG | 20800 fluorescence intensity (a.u.) |
| GCTTGGAAATAGTAGGGTGGCCACACCTAAGCCAATGACTCGGAGTCACCTAGTGCAG | 3970 fluorescence intensity (a.u.) |
| ACTACTACACCTCGTGCGTGTCAGCGCCCCACACCTGTATCGGAGTCACCTAGTGCAG | 6110 fluorescence intensity (a.u.) |
| GTCTCTTACTCTTAACCCCAAGGAGTGGAAGCAAGAAGCGCGGAGTCACCTAGTGCAG | 3170 fluorescence intensity (a.u.) |
| AGACCTGGGTGCACCGCGACGTGGCCAGACGCCCCGCTCCCGGAGTCACCTAGTGCAG | 4480 fluorescence intensity (a.u.) |
| TCGCACGGGCCATGGAGCTACGTGGAGGGCGCGGTGTACCCGGAGTCACCTAGTGCAG | 4020 fluorescence intensity (a.u.) |
